Each number is a percent effect as filed.
The record does not define 0% and 100%; most values in the screen are far below 50% and negative numbers occur (in some assays of this library far below -100).
The compounds are a random part of those screened.

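Whole-cell assay for inhibitors of Mycobacterium tuberculosis growth, labelled Cornell in the record; the read-out is not stated. The concentration is filed as 10 mM, unlikely as a test dose, so the dose is not known. Higher means stronger inhibition (inferred from two other growth screens of the library). Of about 53,000 compounds tested this way, about 900 (1.7%) reached 50% or more in at least one test.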

| structure | Percent Effect |
|---|---|
| `CCCn1ncc(CN(Cc2cccnc2)Cc2ccsc2)c1C` | 31.25% |
| `CCn1ncc2c1C(COC)CN(Cc1ccsc1)C2` (centres unmarked) | -23.91% |
| `Cc1cc(C)c2cc(C(=O)N3CCN(Cc4ccco4)CC3)[nH]c2c1` | -2.194% |
| `Cc1cc(C(=O)NCCN2CCCC(C)C2)nn1C(C)(C)C` (centres unmarked) | -21.77% |
| `COCC(=O)N1CCCC(c2nc(N(C)C)ncc2-c2ccccc2)C1` (centres unmarked) | 21.17% |
| `CCOc1ccc(C#N)cc1NC(=O)N1CCC(n2cncn2)CC1` | -1.8% |
| `CN1CCCc2cc(CNC(=O)c3ccc(-n4cnnc4)cc3)ccc21` | -40.31% |
| `CCOCC1c2c(cnn2C)CCN1C(=O)c1ccncn1.O=C(O)C(F)(F)F` (centres unmarked) | 26.51% |
| `C[C@@H]1CN(C(=O)CCCN2CCOCC2)CC[C@@]1(O)C1CCC1` | 11.51% |
| `CC1CCN(C(=O)NCC(=O)N(C)CC(F)(F)F)C1` (centres unmarked) | 0.5909% |
| `[H][C@@]12COC[C@@H](C(=O)NC)[C@]1([H])CN(C(=O)COc1ccccc1)C2` | 24.82% |
| `O=C(O)C(F)(F)F.O=C(O)C(F)(F)F.[H][C@@]12CCN(Cc3ccsc3)C[C@@]1([H])O[C@@H](C(=O)Nc1cccnc1C)C2` | 28.11% |
| `Cc1noc(CN(Cc2cccs2)C2CCS(=O)(=O)C2)n1` (centres unmarked) | -6.516% |
| `O=C(c1cnns1)N1CCN(Cc2ccc(F)cc2Cl)CC1` | 9.043% |
| `Cc1ccnc(N2CCC(=O)N(Cc3ccc(F)cc3)C(C(C)C)C2)n1` (centres unmarked) | 14.56% |
| `O=S1(=O)CCC(n2nc(COc3ccccc3)nc2-c2cnccn2)C1` (centres unmarked) | 3.657% |
| `COCCCn1c(CN2CCSCC2)cnc1S(=O)(=O)C1CCCC1` | 27.36% |
| `CN(CC(N)=O)C(=O)c1csc(Br)c1` | 29.25% |
| `O=C(O)C(F)(F)F.[H][C@@]12CCCO[C@]1([H])[C@@H](OCC(=O)N(C)C)CN2Cc1ccc(F)cc1` | -9.545% |
| `CN(C)c1cc(C2CCCN2)ccn1` (centres unmarked) | -28.77% |
| `O=C(CCc1cccs1)N1CCCC1c1noc(C2CC2)n1` (centres unmarked) | -0.7961% |
| `Cc1nnc(NCc2cccc(OCC3CCCO3)c2)c(C#N)c1C` (centres unmarked) | -51.05% |
| `O=C(O)C(F)(F)F.O=C(c1ccco1)N1CCCC2(CCN(c3nncs3)C2)C1` (centres unmarked) | -4.011% |
| `Fc1ccc(OCC2CCCO2)c(NCc2cn3cccnc3n2)c1` (centres unmarked) | -1.385% |
| `CCc1nnc(CN2CCCC(Cn3nc(C)nc3C)C2)o1` (centres unmarked) | 10.5% |
| `O=C(O)C1CCCN(C(=O)CCn2ccc3c(Cl)cccc32)C1` (centres unmarked) | 41.02% |
| `CCCC1COCCN1Cc1ccc(C(=O)O)cc1` (centres unmarked) | 3.811% |
| `COc1ccc(CCNC(=O)C2CCOC2)c(Cl)c1` (centres unmarked) | 1.57% |

The last 3 entries again:

| structure | Percent Effect |
|---|---|
| `O=C(O)C1CCCN(C(=O)CCn2ccc3c(Cl)cccc32)C1` (centres unmarked) | 41.02% |
| `CCCC1COCCN1Cc1ccc(C(=O)O)cc1` (centres unmarked) | 3.811% |
| `COc1ccc(CCNC(=O)C2CCOC2)c(Cl)c1` (centres unmarked) | 1.57% |

Data taken from ChEMBL document CHEMBL3988442, “University of Dundee, Small-Polar-MMV Screening Library” (2021).